Source: ChEMBL document CHEMBL3988442, “University of Dundee, Small-Polar-MMV Screening Library” (2021).

Protein sequences, listed by entry. Tags and fused reporters are not part of them.
UniProt E9BF75, entry or part of it: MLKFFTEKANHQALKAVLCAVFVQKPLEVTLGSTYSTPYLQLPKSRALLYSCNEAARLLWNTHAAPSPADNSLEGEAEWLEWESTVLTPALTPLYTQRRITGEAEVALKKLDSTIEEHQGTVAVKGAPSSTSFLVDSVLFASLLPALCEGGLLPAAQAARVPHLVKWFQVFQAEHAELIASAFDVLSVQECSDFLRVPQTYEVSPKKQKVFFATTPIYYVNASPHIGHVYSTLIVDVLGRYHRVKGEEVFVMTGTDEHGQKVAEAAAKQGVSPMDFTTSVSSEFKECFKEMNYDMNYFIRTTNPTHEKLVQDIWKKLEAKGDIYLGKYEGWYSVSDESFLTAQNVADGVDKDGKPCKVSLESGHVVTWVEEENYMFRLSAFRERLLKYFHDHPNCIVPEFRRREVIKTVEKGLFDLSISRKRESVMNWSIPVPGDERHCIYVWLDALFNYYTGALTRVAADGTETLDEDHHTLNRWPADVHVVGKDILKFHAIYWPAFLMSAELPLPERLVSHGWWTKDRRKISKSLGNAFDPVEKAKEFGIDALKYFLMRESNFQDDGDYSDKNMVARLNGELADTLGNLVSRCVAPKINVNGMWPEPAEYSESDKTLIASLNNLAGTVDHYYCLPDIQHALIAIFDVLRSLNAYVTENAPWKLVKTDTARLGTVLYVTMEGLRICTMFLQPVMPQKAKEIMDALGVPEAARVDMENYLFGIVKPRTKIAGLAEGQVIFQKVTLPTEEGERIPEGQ

All values are in %.
How 0% and 100% were set is not recorded. Most values in the screen are low, and negative values occur.
Compounds were drawn at random from those tested, without regard to their results.
A dash means the value is not listed here; it may have been measured.

LdMetRS: 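Methionyl-tRNA synthetase (putative), Leishmania donovani (UniProt E9BF75). Primary screen of methionyl-tRNA synthetase; the read-out is not stated. The test concentration is not given. The values are filed as inhibition. Size under these conditions: about 68,000 compounds, about 24 of them at 50% or above in at least one test.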
Mtb heat-shock: 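Assay on Mycobacterium tuberculosis, filed only as a heat shock assay from Cornell; the read-out is not stated. The concentration is filed as 10 mM, unlikely as a test dose, so the dose is not known. Direction is inferred from retests: higher values go with stronger inhibition. About 69,000 compounds were tested under these conditions; 1.4% (about 930) showed 50% or more at least once.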

compound | LdMetRS | Mtb heat-shock
CCOCC1CC2(CCN(C(=O)c3ccc4ccccc4n3)CC2)CO1.O=C(O)C(F)(F)F (configuration not stated) | - | -11.55
CNc1ccc(Cl)cc1C(=O)N1CCC(Cn2cc(CN)nn2)CC1 | 12.66 | 13.53
Cc1cnccc1N1CCCN(Cc2ccc(-c3cc[nH]n3)o2)CC1 | -4.416 | 11.29
Cc1nc(-c2ccccc2)ccc1C(=O)N1CCn2c(C)nnc2C1 | 16.3 | -3.747
Cc1n[nH]c(C)c1-c1cnc(CC2CCN(C(C)C)CC2)cn1 | 16.72 | 5.494
Cc1noc(C(C)C)c1C(=O)NCCN1CCCCCC1=O | 10.1 | 22.63
CC(C(=O)Nc1ccnn1C(C)C)N1CCCN(c2nccs2)CC1 (configuration not stated) | 8.355 | 17.24
COc1cccc2c1OCC(C(=O)N(C)CCCc1cnn(C)c1)C2 (configuration not stated) | 12.32 | 0.5714
CCCNC(=O)CN1CCN(Cc2csc(C(C)(C)C)n2)CC1 | 5.164 | 18.07
Cc1cc(CN2CCC(CNS(=O)(=O)c3ccccc3Cl)CC2)c(C)o1 | 12.23 | -24.73
O=C(CN1CCCCC1Cn1cncn1)NCCc1ccsc1 (configuration not stated) | 12.68 | -13.29
COc1nn(C)c2c1CCCN(C(=O)c1ccccc1)C2 | 13.33 | 1.34
O=C(O)C(F)(F)F.[H][C@@]12CCN(c3cccc(F)c3)C[C@@]1([H])O[C@H](C(=O)N1CCCC1)C2 | - | -3.193
CCN1CCC(CNS(=O)(=O)N2CCc3ccccc3C2)C1 (configuration not stated) | 13.06 | -21.21
CN(C)c1ccccc1C(=O)N1CCOC2(CNCCOC2)C1 (configuration not stated) | 20.07 | -5.627
CC(C)n1ncc2c1NC(=O)CSC2C(F)(F)F (configuration not stated) | 18.48 | -10.09
N#Cc1cccnc1NCCNC(=O)N1CCCSCC1 | 7.609 | -1.637
COCCN1CCC2(CC1)CC(NC(=O)CN(C)C)c1ccccc1O2 (configuration not stated) | 10.64 | -
COc1ccc(CN2CCC=C(C(C)NC(C)=O)C2)cc1 (configuration not stated) | 19.31 | -21.07
Cn1cc(CNC2CC3(CCN(CC4CC4)CC3)c3ccccc32)cn1 (configuration not stated) | 14.13 | -
COC[C@@]12CCC[C@@H]1CN(C(=O)Cc1ccccn1)C2 | 1.76 | -
CC(C)N1CC[C@H]2[C@H](C[C@@H](Cn3cncn3)N2c2nccs2)C1 | -2.732 | -
CCc1ccc(O)c(C(=O)NC2CCN(Cc3ccncc3)CC2)c1 | 6.748 | 16.61
Cn1c(CN2CCCCC2)cc(=O)c(O)c1CN1CCCCC1 | 8.943 | 4.062
CC(C)N1CCC(C(=O)N(C)C(C)c2ccon2)CC1 (configuration not stated) | 11.11 | 8.194
CN(C)Cc1nnc2n1CCN(c1cnccn1)CC2 | 12.89 | -
c1ccc(CN2CC[C@@H]3O[C@@H](COCC4CCOCC4)CC[C@@H]32)nc1 | 10.1 | -
CN(C)C(=O)N1CCN(Cc2nc3ccccc3[nH]2)[C@H]2CS(=O)(=O)C[C@H]21 | 1.031 | -
Cc1cc(C)n(CC2CN(CC(=O)NCc3cccs3)CCO2)n1 (configuration not stated) | 7.937 | 4.655
[H][C@@]12CS(=O)(=O)C[C@]1([H])N(Cc1cccc(OCC(N)=O)c1)CCN2CCC | - | -20.72
CS(=O)(=O)N1CCc2c(cccc2NC(=O)NC2CCCC2)C1 | 21.75 | 12.93
O=C(Cc1ccccc1)C1CCCN(Cc2cncn2C2CCCC2)C1 (configuration not stated) | 12.75 | 25.76
CCC(C)C(=O)NCc1cc(Br)c(OC)c(OC)c1 (configuration not stated) | 16.43 | -32.88
[H][C@@]12CCN(CCOCc3ccccc3)[C@]1([H])CC[C@@H](C(=O)NCC1CC1)O2 | - | 12.85
O=C(O)C(F)(F)F.[H][C@]12CCN(c3ccc(C)nn3)C[C@@]1([H])CN(Cc1cccnc1OC)C2 | - | 16.3
CC(C)CS(=O)(=O)N1CCC2(CN(c3ccsc3)C(=O)CN2C)C1.O=C(O)C(F)(F)F (configuration not stated) | - | -37.61
O=C1COC2(CCN(C(=O)C3CC=CC3)CC2)CN1Cc1cccnc1 | 5.625 | -
Clc1ccccc1C1(c2ccnc(C3CC3)n2)CCNCC1 | 9.537 | -18.26
O=C(CCC1CCN(C(=O)c2csnn2)CC1)NCc1cccc(Cl)c1 | -11.91 | -18.96
c1cncc(N2CCOCC3(CCCN(c4nncs4)C3)C2)c1 (configuration not stated) | 14.16 | -
Cc1cc(CN2CC[C@H]3C[C@@H](C)O[C@@H]3C2)no1 | 4 | -
O=C(O)C(F)(F)F.O=C(O)C(F)(F)F.[H][C@@]12CN(Cc3cccc(F)c3)C[C@]1([H])CN(Cc1ccccn1)C2 | - | 35.12
CC(C)(O)CN1CCN(C(=O)c2cccc3cccnc23)CC1 | 13.22 | 6.65
COc1ccc(NC(=O)CCn2nc(-c3cccs3)oc2=O)cc1OC | 8.101 | 8.108
O=C1NC2(CCN(C(=O)Cc3ccsc3)CC2)CC1c1ccncc1 (configuration not stated) | 9.804 | -4.605
NC(=O)C1=NN2C(=NS(=O)(=O)c3ccccc32)N1 | 15.57 | -22.58
CCc1nsc(NC2CC(=O)N(C3CC3)C2)n1 (configuration not stated) | 2.431 | 25.65
COc1ccncc1NC(=O)c1[nH]nc(C(C)C)c1Br | 27.07 | -29.69
Cc1scc(C(=O)N2CCC3(CC(=O)NC3=O)C2)c1-c1ccccc1 (configuration not stated) | 16.3 | 8.623
CC(=O)NCc1nnn2c1CN(c1ncc(C)cn1)CCC2 | 11.73 | 42.95
COc1cc(CSc2nnc(C)n2CC(N)=O)ccc1SC | 14.97 | -10.84
O=C(O)C(F)(F)F.[H][C@]12CCC[C@@]1(COc1ccccn1)CN(C(=O)CS(C)(=O)=O)C2 | - | 1.181
CC(CNCc1ccc(Br)cc1)Oc1ccccn1.Cl (configuration not stated) | - | -4.228
COc1cc(C(C)=O)ccc1OC12CCCN(CC1)C2 (configuration not stated) | 3.763 | -7.947
CC(C)CC(NS(C)(=O)=O)C(=O)N(C)Cc1nnc2n1CCC2 (configuration not stated) | 14.54 | -7.078
COC(C)(C)C(=O)N1Cc2cnc(C(C)(C)C)nc2C1 | 6.529 | 8.178
CCn1nc(C)c(NC(=O)CN(C)C(C)c2ccon2)c1C (configuration not stated) | 12.71 | -14.99
Cc1c(-c2nnc(SCC(=O)O)n2C(C)c2ccccc2)cnn1C (configuration not stated) | 4.839 | -32.73
OCCOc1cc(F)ccc1NCc1cccc(F)c1F | 7.843 | -41.85
CN(C)C(=O)N1CCN(C(=O)C(c2ccccc2F)N(C)C)CC1 (configuration not stated) | 16.81 | 7.819
CN1C[C@@H](n2cnc(-c3ccccc3)c2-c2nccn2C)C[C@H]1C(=O)O | 10.14 | 8.957
Cc1nccc(NCc2cncc3c2CCN(CCN(C)C)C3)n1 | 19.64 | 3.393
COc1cc2c(c(OC)c1OC)CCN(CCn1nc(C)cc1C)CC2 | 7.788 | -2.941
CNC(=O)CS(=O)(=O)C1CCN(S(=O)(=O)c2ccccc2Cl)CC1 | -3.846 | -8.464
O=C(O)C(F)(F)F.[H][C@@]12CN(CC3CCOCC3)C[C@]1([H])C(=O)N(Cc1cccc(F)c1)C2 | - | 2.068
Cc1ccc2c(n1)N(Cc1cccnc1)CCN(C1CCOCC1)C2.O=C(O)C(F)(F)F.O=C(O)C(F)(F)F.O=C(O)C(F)(F)F | - | -18.65
Cc1cccc(CNC2CCCc3c2cnn3C)c1 (configuration not stated) | 5.882 | -

7 of the entries, repeated:

| compound | LdMetRS | Mtb heat-shock |
|---|---|---|
| `O=C1COC2(CCN(C(=O)C3CC=CC3)CC2)CN1Cc1cccnc1` | 5.625 | - |
| `CC(C)n1ncc2c1NC(=O)CSC2C(F)(F)F` (configuration not stated) | 18.48 | -10.09 |
| `CCn1nc(C)c(NC(=O)CN(C)C(C)c2ccon2)c1C` (configuration not stated) | 12.71 | -14.99 |
| `Cn1c(CN2CCCCC2)cc(=O)c(O)c1CN1CCCCC1` | 8.943 | 4.062 |
| `Cc1n[nH]c(C)c1-c1cnc(CC2CCN(C(C)C)CC2)cn1` | 16.72 | 5.494 |
| `CCN1CCC(CNS(=O)(=O)N2CCc3ccccc3C2)C1` (configuration not stated) | 13.06 | -21.21 |
| `CC(CNCc1ccc(Br)cc1)Oc1ccccn1.Cl` (configuration not stated) | - | -4.228 |